A melting point compilation (Tetko et al.)

melting point: 193 to 200 °C
SMILES: COC1C(OC(C)=O)CC(=O)OC(C)CC=CC=CC(=O)C(C)CC(CC=O)C1OC1OC(C)C(OC2CC(C)(O)C(OC(=O)CC(C)C)C(C)O2)C(N(C)C)C1O (stereo unspecified)
